Reference: the supplement of paper PMC12819154, “High-throughput peptide-centric local stability assay extends protein–ligand identification to membrane proteins, tissues and bacteria” (Nature Structural & Molecular Biology, 2025)
Some of the results follow. Small differences around the control level are noise.

Protein sequences, listed by entry. Tags and fused reporters are not part of them. Lines headed by an entry give the natural chain unless they say otherwise; changes in a name come on top.
UniProt Q9ULC3: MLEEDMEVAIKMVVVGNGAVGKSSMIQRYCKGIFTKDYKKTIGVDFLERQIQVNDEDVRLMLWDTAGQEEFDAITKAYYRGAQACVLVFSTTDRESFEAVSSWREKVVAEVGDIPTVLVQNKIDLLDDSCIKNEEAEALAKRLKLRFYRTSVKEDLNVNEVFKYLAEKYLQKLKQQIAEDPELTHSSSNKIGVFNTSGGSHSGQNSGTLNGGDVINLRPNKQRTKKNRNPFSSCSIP
UniProt Q9UN86: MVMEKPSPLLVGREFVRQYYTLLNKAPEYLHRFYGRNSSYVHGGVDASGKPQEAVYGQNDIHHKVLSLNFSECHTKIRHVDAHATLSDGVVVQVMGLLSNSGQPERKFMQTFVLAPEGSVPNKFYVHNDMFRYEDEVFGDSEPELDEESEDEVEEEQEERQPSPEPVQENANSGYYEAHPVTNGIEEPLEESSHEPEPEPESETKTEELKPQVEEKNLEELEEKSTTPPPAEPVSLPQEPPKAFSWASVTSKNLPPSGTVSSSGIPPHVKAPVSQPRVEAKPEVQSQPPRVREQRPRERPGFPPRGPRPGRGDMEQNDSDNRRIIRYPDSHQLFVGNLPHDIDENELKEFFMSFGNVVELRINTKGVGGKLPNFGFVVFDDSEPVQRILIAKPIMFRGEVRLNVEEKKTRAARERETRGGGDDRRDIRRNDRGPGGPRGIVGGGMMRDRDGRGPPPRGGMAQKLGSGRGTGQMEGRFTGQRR
UniProt Q9UQQ2: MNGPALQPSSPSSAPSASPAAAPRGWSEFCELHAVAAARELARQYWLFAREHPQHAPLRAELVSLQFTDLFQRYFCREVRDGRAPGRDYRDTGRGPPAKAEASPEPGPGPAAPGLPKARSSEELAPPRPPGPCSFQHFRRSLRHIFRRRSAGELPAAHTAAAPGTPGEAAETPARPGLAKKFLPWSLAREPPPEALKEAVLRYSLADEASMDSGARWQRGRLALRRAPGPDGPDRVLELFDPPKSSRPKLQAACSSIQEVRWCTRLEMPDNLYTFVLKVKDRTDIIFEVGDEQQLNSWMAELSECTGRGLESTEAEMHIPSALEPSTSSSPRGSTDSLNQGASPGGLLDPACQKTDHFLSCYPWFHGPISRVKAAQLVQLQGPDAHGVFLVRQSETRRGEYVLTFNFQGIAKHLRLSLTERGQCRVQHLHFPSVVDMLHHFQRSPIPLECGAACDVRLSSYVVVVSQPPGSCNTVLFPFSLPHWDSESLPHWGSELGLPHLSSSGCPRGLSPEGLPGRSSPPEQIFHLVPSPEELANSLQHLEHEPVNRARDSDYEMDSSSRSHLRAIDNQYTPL
UniProt Q9UHP3: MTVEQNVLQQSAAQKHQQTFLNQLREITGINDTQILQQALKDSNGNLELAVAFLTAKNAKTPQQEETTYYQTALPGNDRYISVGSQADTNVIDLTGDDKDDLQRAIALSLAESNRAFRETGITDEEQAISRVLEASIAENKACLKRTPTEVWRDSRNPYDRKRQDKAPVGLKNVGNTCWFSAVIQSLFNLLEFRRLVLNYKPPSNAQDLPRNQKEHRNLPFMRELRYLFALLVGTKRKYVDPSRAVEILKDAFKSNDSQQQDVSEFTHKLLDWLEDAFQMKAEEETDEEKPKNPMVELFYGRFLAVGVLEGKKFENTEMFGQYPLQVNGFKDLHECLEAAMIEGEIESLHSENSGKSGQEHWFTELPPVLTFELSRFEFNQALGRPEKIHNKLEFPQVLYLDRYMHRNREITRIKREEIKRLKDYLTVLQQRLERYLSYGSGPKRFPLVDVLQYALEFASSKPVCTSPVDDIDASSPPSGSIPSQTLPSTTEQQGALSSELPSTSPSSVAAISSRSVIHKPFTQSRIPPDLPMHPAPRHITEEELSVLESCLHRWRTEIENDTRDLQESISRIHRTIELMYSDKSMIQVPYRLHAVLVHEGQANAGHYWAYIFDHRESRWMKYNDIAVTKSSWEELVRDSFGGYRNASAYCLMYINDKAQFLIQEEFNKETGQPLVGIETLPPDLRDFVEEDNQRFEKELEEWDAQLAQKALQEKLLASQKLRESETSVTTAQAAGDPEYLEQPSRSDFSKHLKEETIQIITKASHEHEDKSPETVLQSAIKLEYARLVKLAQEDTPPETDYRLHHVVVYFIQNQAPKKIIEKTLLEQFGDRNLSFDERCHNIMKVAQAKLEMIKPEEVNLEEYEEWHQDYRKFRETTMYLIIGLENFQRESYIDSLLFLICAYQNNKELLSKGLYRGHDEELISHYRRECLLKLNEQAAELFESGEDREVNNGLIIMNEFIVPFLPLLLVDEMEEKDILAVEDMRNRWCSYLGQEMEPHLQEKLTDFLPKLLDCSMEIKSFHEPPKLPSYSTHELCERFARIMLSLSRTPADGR
UniProt Q9UJX5, whole entry: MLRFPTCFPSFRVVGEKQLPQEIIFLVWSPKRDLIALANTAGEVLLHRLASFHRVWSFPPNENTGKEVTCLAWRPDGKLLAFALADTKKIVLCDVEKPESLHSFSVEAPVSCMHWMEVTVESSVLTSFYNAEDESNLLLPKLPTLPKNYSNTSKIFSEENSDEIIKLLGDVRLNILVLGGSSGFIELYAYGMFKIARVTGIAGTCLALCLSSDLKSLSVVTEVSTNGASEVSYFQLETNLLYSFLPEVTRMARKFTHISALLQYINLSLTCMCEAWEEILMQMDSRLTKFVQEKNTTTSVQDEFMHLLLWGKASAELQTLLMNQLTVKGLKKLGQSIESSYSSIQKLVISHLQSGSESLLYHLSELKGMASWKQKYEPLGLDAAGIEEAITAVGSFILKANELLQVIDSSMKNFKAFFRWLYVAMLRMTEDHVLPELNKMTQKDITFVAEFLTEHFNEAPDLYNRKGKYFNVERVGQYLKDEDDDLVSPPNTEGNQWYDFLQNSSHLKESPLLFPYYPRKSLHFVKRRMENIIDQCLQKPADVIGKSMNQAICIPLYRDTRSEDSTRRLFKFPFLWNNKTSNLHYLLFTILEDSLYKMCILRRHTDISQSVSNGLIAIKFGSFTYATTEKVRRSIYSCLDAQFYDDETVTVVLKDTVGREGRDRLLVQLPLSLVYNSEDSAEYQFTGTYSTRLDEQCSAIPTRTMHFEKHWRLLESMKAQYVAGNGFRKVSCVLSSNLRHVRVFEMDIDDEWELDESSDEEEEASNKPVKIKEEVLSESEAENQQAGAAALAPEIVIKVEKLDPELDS
UniProt Q9UPN4: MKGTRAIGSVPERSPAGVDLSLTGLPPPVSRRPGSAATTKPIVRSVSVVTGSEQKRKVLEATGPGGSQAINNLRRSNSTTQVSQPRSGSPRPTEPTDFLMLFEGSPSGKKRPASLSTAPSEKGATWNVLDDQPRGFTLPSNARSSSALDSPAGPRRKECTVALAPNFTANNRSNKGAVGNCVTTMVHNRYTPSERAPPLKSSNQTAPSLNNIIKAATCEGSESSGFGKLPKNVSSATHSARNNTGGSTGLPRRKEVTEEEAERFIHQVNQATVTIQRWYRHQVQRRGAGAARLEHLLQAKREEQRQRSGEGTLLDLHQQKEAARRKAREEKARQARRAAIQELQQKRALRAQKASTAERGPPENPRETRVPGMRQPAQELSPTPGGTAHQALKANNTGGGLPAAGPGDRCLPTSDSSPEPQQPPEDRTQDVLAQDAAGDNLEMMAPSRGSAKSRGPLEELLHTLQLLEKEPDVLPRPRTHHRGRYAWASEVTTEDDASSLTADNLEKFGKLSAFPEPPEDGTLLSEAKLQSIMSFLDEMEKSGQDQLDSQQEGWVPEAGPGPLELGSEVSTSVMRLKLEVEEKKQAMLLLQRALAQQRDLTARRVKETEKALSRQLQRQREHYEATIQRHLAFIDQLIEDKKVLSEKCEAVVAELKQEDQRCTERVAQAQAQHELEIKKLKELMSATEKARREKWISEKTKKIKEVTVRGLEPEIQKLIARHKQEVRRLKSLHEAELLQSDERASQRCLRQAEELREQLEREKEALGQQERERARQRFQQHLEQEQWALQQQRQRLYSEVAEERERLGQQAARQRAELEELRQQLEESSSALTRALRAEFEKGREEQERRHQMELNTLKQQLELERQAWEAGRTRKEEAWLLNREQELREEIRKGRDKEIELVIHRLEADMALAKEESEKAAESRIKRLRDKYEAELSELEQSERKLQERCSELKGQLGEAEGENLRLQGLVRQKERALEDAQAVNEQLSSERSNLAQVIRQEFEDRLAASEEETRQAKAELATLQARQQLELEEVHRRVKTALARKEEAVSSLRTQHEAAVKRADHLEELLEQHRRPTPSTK
UniProt Q9ULD4: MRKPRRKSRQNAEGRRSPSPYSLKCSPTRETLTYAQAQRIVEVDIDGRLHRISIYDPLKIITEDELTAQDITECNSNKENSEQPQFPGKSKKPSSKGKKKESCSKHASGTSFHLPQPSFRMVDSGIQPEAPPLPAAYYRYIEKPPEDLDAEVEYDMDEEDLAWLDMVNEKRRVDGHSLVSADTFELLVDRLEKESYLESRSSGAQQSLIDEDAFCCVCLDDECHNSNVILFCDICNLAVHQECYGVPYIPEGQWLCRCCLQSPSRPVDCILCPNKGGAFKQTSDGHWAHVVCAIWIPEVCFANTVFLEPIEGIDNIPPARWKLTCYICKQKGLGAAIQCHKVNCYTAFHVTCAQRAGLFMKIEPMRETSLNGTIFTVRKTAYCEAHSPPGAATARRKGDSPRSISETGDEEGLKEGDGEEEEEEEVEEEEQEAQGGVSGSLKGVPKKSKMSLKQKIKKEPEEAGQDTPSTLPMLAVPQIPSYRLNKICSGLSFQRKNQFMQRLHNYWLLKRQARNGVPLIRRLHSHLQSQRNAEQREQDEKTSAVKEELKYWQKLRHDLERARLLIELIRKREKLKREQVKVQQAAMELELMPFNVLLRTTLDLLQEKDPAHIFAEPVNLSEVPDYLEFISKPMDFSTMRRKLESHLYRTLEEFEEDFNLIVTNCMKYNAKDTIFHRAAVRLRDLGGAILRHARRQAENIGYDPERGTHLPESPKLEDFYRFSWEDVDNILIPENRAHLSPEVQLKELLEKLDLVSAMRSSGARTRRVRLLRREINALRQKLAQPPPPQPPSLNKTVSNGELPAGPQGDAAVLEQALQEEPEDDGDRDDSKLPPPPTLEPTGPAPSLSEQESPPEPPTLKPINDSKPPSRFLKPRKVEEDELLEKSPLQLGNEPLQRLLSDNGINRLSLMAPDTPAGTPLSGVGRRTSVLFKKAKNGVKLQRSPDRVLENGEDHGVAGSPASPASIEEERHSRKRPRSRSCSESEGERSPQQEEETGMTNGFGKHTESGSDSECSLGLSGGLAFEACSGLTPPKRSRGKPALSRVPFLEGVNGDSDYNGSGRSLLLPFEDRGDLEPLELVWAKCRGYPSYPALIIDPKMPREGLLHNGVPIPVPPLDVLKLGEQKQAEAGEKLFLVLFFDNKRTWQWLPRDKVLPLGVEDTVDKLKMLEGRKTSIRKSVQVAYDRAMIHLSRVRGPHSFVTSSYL
UniProt Q9UMS4: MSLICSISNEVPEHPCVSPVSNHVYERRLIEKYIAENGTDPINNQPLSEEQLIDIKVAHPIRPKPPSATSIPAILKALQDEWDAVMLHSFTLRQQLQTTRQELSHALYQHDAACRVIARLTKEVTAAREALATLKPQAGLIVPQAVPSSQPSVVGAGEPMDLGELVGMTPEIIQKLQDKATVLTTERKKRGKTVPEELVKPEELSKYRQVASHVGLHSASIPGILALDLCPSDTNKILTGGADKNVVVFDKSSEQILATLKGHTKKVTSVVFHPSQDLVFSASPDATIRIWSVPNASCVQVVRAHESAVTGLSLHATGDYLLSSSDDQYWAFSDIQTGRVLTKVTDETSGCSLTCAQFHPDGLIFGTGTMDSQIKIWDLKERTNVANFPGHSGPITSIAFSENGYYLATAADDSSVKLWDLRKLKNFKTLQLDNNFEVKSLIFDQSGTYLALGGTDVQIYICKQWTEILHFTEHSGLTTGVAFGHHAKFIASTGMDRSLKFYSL
UniProt Q9ULR3: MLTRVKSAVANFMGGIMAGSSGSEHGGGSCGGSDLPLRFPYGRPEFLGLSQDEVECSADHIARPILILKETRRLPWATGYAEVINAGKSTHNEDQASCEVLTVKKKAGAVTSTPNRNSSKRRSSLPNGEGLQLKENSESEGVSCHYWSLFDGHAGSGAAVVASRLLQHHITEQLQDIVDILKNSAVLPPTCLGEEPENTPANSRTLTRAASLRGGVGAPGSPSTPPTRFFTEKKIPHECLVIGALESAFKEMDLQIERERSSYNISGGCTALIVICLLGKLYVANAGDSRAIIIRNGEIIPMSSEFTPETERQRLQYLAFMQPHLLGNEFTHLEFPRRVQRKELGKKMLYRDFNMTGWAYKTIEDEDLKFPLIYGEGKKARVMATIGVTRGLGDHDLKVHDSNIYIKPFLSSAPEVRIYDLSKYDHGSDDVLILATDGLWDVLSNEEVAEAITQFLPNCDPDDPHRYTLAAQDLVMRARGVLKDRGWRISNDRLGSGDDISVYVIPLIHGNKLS

What follows are targets tested with Cc1nc(Nc2ncc(C(=O)Nc3c(C)cccc3Cl)s2)cc(N2CCN(CCO)CC2)n1 [dasatinib] (assay: log2 fold change of tryptic peptide abundance, ligand vs vehicle (limited proteolysis) (log2 ratio); higher = more trypsin-susceptible (destabilized)). Conditions: ligand concentration: 5 uM; sample: K562 cleared lysate.

Target	log2 fold change
FEZ2 (peptide sequence: SHMPGTYLTTVIPYEK, peptide start residue: 296) (UniProt Q9UHY8)	-0.376
RAB23 (peptide sequence: TIGVDFLER, peptide start residue: 41) (UniProt Q9ULC3)	-0.15
G3BP2 (peptide sequence: NDRGPGGPR, peptide start residue: 430) (UniProt Q9UN86)	-0.436
SMG5 (peptide sequence: NVLDFYK, peptide start residue: 1004) (UniProt Q9UPR3)	-0.13
SRRM2 (peptide sequence: YSHSGSSSPDTK, peptide start residue: 967) (UniProt Q9UQ35)	-0.705
UniProt Q9UL18 (peptide sequence: LFCADKNER, peptide start residue: 713)	0.58
DICER1 (peptide sequence: LPSDPFTHLAPK, peptide start residue: 641) (UniProt Q9UPY3)	-0.174
CIZ1 (peptide sequence: QVQLQLQK, peptide start residue: 418) (UniProt Q9ULV3)	-0.145
SH2B3 (peptide sequence: TDHFLSCYPWFHGPISR, peptide start residue: 355) (UniProt Q9UQQ2)	0.551
USP25 (peptide sequence: GHDEELISHYR, peptide start residue: 918) (UniProt Q9UHP3)	0.322
ANAPC4 (peptide sequence: WLYVAMLR, peptide start residue: 420) (UniProt Q9UJX5)	-0.212
UniProt Q9UPN4 (peptide sequence: TRKEEAWLLNR, peptide start residue: 874)	-0.308
UniProt Q9ULD4 (peptide sequence: IVEVDIDGR, peptide start residue: 40)	-0.401
PRPF19 (peptide sequence: TVPEELVKPEELSK, peptide start residue: 193) (UniProt Q9UMS4)	-0.175
PPM1H (peptide sequence: RLPWATGYAEVINAGK, peptide start residue: 73) (UniProt Q9ULR3)	-0.557
